Experimental findings from US20130123340A1 are described below.

For test [1], the target named is T1, caveolin-3, mouse, endogenous (mouse) (UniProt P51637).
T1 sequence (looked up): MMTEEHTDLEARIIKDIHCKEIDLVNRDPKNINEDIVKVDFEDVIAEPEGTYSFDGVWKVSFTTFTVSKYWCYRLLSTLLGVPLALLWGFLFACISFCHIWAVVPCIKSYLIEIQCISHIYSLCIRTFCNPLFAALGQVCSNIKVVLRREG
Nature of the test: co-immunoprecipitation and confocal co-staining, heart.

Test [2] deals with T1, caveolin-3, mouse, endogenous (mouse). Kind of test: co-immunoprecipitation from wt mouse heart lysate.
Test [3] shares this target. Kind of test: co-immunoprecipitation from wt mouse heart lysate (FIG. 13).
In test [4] the target is T2, mitsugumin 53 (MG53), mouse, endogenous (mouse) (UniProt Q1XH17).
T2 sequence (looked up): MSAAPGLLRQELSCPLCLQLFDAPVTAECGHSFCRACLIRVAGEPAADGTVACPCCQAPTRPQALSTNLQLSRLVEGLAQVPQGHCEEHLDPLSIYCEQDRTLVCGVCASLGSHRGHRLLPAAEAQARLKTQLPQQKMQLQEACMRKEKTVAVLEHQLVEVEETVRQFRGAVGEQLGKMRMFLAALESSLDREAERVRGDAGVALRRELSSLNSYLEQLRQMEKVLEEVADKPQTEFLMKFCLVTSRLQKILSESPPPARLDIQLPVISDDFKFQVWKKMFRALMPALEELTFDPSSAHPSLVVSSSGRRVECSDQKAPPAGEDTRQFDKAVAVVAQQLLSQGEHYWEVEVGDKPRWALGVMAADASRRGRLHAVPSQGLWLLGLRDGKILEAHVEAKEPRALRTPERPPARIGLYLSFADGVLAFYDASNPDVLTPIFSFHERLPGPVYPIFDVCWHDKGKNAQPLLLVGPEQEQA
Nature of the test: co-immunoprecipitation from mouse gastrocnemius skeletal muscle lysate.

No constants are given. Whether binding was seen depends on the method and setting. In cells and extracts the contact can be indirect. Some entries that bind do so weakly or less than the wild type.

B1: mitsugumin 53 (MG53), mouse, endogenous (protein, UniProt Q1XH17 1-477, looked up)
chain: MSAAPGLLRQELSCPLCLQLFDAPVTAECGHSFCRACLIRVAGEPAADGTVACPCCQAPTRPQALSTNLQLSRLVEGLAQVPQGHCEEHLDPLSIYCEQDRTLVCGVCASLGSHRGHRLLPAAEAQARLKTQLPQQKMQLQEACMRKEKTVAVLEHQLVEVEETVRQFRGAVGEQLGKMRMFLAALESSLDREAERVRGDAGVALRRELSSLNSYLEQLRQMEKVLEEVADKPQTEFLMKFCLVTSRLQKILSESPPPARLDIQLPVISDDFKFQVWKKMFRALMPALEELTFDPSSAHPSLVVSSSGRRVECSDQKAPPAGEDTRQFDKAVAVVAQQLLSQGEHYWEVEVGDKPRWALGVMAADASRRGRLHAVPSQGLWLLGLRDGKILEAHVEAKEPRALRTPERPPARIGLYLSFADGVLAFYDASNPDVLTPIFSFHERLPGPVYPIFDVCWHDKGKNAQPLLLVGPEQEQA
As to B1, the binding entry in test [1], in test [2] and in test [3] was “binds” each time.

B2: caveolin-3, mouse, endogenous (protein, UniProt P51637 1-151, looked up)
chain: MMTEEHTDLEARIIKDIHCKEIDLVNRDPKNINEDIVKVDFEDVIAEPEGTYSFDGVWKVSFTTFTVSKYWCYRLLSTLLGVPLALLWGFLFACISFCHIWAVVPCIKSYLIEIQCISHIYSLCIRTFCNPLFAALGQVCSNIKVVLRREG
Turning to B2, the binding result in test [4] is “binds”.
